In US20090130105A1:
Results are given in words; binding and its absence hold for the method and conditions named. Some binding calls cover weakened binding; strength is not graded here.

Sequences of proteins named here, by UniProt entry; tags and fusion partners are left off. A change or cut given only in a name is not applied to a line headed by its entry.
UniProt P08069: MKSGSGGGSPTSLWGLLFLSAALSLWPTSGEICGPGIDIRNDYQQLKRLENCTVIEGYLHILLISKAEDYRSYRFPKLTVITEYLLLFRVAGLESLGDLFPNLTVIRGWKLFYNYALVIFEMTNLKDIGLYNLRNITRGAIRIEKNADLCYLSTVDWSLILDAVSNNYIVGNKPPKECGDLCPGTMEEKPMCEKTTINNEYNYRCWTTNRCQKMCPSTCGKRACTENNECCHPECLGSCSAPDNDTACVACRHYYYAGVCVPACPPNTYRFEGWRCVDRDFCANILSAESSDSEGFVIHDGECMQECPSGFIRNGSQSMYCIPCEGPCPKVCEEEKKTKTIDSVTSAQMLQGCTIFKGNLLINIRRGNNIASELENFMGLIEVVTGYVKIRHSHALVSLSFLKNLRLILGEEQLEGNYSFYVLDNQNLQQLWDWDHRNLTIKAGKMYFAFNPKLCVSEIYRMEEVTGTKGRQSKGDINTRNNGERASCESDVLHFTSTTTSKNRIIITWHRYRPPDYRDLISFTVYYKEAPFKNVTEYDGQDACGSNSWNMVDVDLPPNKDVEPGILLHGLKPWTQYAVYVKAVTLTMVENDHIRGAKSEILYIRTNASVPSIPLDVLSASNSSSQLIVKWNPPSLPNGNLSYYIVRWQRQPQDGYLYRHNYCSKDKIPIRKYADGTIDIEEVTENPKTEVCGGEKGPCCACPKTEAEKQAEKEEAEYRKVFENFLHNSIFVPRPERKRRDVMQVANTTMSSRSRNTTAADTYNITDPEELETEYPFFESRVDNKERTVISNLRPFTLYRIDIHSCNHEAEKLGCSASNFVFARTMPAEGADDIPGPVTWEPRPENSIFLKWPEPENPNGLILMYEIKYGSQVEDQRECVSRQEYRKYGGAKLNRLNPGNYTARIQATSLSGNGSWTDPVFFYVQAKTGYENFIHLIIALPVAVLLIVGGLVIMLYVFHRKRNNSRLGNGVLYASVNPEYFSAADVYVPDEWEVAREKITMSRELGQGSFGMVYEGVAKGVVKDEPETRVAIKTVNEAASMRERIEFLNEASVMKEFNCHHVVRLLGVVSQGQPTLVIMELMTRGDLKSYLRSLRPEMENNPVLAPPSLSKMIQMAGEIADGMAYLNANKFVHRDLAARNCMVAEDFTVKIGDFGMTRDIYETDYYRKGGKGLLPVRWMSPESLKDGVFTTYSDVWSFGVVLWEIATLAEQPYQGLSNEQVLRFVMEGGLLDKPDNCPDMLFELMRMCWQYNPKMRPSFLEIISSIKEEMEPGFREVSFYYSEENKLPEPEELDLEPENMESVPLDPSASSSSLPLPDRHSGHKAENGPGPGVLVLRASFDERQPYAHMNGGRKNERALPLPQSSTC

Legend:
[1] = target: hIGF-1R-Fc mutant SD019 (E739W, L741F) (human) (UniProt P08069); assay: SPR, Fab over captured mutant; NE = KD within 2.5-fold of WT hIGF-1R-Fc
[2] = target: hIGF-1R-Fc mutant SD008 (S257F) (human) (UniProt P08069); assay: as above

binding [1]: binds
binding [2]: binds
B1: M14-C03 Fab (Fab, V domains shown)
VH: EVQLLESGGGLVQPGGSLRLSCAASGFTFSKYMMSWVRQAPGKGLEWVSYISPSGGLTWYADSVKGRFTISRDNSKNTLYLQMNSLRAEDTAVYYCARDGARGYGMDVWGQGTTVTVSS
VL: DIQMTQSPATLSLSPGERATLSCRASQSVSSYLAWYQQKPGQAPRLLIYDASNRATGIPARFSGSGSGTDFTLTISSLEPEDFAVYYCQQRSNWPPEVTFGPGTKVDIK
